Laboratory results reported in article PMC2780400.
These are yes or no findings as the source states them, for the method shown. Some entries that bind do so weakly or less than the wild type.

T1: FtsY (purified) (E. coli), P10121
T1 chain: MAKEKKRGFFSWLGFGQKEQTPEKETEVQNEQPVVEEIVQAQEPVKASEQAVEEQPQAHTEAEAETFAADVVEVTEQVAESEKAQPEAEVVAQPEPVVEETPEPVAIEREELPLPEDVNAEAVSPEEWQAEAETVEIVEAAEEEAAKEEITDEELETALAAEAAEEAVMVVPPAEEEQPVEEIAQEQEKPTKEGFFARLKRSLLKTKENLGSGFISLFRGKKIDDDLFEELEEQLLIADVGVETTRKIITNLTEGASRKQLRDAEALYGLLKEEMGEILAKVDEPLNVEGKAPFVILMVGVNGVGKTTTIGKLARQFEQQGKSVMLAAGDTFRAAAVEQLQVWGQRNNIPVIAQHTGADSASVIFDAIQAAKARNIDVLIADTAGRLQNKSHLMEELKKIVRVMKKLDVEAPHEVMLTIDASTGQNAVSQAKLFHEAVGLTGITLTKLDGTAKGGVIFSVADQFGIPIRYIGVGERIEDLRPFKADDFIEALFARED

T2: signal recognition particle (SRP), reconstituted from Ffh and 4.5S RNA (E. coli), P0AGD7
T2 chain: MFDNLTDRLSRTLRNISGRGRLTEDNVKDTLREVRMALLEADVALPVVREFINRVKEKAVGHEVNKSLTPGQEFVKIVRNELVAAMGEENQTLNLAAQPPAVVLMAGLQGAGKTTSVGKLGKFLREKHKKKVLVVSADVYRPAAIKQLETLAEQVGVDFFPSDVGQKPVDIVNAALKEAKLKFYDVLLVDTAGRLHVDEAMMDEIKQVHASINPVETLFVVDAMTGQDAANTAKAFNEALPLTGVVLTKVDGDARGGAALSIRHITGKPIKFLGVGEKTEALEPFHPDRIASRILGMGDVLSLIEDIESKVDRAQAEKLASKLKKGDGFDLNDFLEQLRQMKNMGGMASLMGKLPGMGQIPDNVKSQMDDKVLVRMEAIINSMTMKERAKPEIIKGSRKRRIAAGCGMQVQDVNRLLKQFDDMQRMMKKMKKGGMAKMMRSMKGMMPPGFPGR


What was measured:
[1] = target: T1, FtsY (purified) (E. coli), P10121; assay: co-IP; as a5, for the pair SRP and FtsY: purified SRP and purified FtsY with MtlA189 RNCs and GMP-PNP; anti-FtsY antibodies precipitate the RNCs only when SRP is present; both purified; settings: remark: other sources report otherwise
[2] = target: T2, signal recognition particle (SRP), …; assay: co-sedimentation; as a1 (with GMP-PNP), for the pair FtsY and SRP: purified FtsY and purified SRP, SRP bound to the pelleted MtlA-189 RNCs; both purified; settings: remark: other sources report otherwise

binding [1]	binding [2]	Binder
binds	–	signal recognition particle (SRP), reconstituted from Ffh and 4.5S RNA, P0AGD7 1-453 (complex) MFDNLTDRLSRTLRNISGRGRLTEDNVKDTLREVRMALLEADVALPVVREFINRVKEKAVGHEVNKSLTPGQEFVKIVRNELVAAMGEENQTLNLAAQPPAVVLMAGLQGAGKTTSVGKLGKFLREKHKKKVLVVSADVYRPAAIKQLETLAEQVGVDFFPSDVGQKPVDIVNAALKEAKLKFYDVLLVDTAGRLHVDEAMMDEIKQVHASINPVETLFVVDAMTGQDAANTAKAFNEALPLTGVVLTKVDGDARGGAALSIRHITGKPIKFLGVGEKTEALEPFHPDRIASRILGMGDVLSLIEDIESKVDRAQAEKLASKLKKGDGFDLNDFLEQLRQMKNMGGMASLMGKLPGMGQIPDNVKSQMDDKVLVRMEAIINSMTMKERAKPEIIKGSRKRRIAAGCGMQVQDVNRLLKQFDDMQRMMKKMKKGGMAKMMRSMKGMMPPGFPGR
–	binds	FtsY (in vitro synthesized, purified, 35S-labelled), P10121 1-497 (receptor, here or on the partner: 35S-labelled) MAKEKKRGFFSWLGFGQKEQTPEKETEVQNEQPVVEEIVQAQEPVKASEQAVEEQPQAHTEAEAETFAADVVEVTEQVAESEKAQPEAEVVAQPEPVVEETPEPVAIEREELPLPEDVNAEAVSPEEWQAEAETVEIVEAAEEEAAKEEITDEELETALAAEAAEEAVMVVPPAEEEQPVEEIAQEQEKPTKEGFFARLKRSLLKTKENLGSGFISLFRGKKIDDDLFEELEEQLLIADVGVETTRKIITNLTEGASRKQLRDAEALYGLLKEEMGEILAKVDEPLNVEGKAPFVILMVGVNGVGKTTTIGKLARQFEQQGKSVMLAAGDTFRAAAVEQLQVWGQRNNIPVIAQHTGADSASVIFDAIQAAKARNIDVLIADTAGRLQNKSHLMEELKKIVRVMKKLDVEAPHEVMLTIDASTGQNAVSQAKLFHEAVGLTGITLTKLDGTAKGGVIFSVADQFGIPIRYIGVGERIEDLRPFKADDFIEALFARED
